This test concerns the target Flag-tagged kinase-dead Nek10 (human) (UniProt Q6ZWH5). The test is described as follows: co-IP.

Protein sequences, listed by entry. Tags and fused reporters are not part of them. Lines headed by an entry give the natural chain unless they say otherwise; changes in a name come on top.
UniProt Q6ZWH5: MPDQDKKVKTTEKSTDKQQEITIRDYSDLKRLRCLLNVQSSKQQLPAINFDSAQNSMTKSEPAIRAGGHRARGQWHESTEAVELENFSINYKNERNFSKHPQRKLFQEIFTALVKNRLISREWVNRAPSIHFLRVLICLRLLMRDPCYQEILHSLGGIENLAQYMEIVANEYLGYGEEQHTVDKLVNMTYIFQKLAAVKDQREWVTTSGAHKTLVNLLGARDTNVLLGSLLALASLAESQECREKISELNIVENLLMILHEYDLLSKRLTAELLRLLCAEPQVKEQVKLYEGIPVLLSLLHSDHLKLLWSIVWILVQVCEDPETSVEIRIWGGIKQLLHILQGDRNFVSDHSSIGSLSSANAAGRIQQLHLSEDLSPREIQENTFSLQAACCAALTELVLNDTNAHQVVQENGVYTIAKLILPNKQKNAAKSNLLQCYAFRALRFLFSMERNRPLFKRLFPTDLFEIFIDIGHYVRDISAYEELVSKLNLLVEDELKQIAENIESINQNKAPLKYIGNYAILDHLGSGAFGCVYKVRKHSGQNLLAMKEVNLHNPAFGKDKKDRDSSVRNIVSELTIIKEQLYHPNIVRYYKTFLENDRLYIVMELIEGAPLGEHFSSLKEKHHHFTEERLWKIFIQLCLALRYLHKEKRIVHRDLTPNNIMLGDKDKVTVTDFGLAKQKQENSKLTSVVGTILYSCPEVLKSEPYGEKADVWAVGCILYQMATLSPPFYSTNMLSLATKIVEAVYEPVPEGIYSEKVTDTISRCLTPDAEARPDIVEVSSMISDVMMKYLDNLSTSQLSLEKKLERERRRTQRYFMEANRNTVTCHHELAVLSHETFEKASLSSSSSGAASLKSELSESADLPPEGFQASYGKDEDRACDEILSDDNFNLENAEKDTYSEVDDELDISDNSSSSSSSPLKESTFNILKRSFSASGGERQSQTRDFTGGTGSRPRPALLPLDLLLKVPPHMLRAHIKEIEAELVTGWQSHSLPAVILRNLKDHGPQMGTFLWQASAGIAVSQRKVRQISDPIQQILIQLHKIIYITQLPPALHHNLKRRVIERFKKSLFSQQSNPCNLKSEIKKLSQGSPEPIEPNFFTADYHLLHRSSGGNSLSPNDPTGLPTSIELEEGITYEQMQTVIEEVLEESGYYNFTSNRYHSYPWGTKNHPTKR
UniProt O15169: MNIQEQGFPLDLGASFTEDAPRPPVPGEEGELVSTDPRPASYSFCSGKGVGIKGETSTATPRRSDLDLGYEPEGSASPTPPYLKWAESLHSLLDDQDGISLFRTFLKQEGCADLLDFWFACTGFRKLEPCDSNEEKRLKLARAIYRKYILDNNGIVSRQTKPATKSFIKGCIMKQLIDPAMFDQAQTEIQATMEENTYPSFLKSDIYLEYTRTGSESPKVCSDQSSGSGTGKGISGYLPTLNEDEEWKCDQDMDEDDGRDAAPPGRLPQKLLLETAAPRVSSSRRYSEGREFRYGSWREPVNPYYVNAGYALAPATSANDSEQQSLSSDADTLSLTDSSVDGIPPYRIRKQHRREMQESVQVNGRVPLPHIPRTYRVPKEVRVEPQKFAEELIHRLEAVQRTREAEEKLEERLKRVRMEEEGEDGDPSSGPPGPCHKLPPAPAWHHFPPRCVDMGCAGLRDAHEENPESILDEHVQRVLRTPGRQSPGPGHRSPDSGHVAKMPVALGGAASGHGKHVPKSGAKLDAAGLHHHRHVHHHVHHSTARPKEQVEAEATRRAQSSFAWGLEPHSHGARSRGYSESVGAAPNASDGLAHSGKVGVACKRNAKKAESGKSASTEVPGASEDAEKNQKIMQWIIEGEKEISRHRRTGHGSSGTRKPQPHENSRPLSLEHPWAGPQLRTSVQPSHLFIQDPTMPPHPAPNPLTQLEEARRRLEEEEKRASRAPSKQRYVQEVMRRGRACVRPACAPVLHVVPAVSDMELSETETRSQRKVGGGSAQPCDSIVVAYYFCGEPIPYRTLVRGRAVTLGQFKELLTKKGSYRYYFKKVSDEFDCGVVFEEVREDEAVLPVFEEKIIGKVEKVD
UniProt P35222: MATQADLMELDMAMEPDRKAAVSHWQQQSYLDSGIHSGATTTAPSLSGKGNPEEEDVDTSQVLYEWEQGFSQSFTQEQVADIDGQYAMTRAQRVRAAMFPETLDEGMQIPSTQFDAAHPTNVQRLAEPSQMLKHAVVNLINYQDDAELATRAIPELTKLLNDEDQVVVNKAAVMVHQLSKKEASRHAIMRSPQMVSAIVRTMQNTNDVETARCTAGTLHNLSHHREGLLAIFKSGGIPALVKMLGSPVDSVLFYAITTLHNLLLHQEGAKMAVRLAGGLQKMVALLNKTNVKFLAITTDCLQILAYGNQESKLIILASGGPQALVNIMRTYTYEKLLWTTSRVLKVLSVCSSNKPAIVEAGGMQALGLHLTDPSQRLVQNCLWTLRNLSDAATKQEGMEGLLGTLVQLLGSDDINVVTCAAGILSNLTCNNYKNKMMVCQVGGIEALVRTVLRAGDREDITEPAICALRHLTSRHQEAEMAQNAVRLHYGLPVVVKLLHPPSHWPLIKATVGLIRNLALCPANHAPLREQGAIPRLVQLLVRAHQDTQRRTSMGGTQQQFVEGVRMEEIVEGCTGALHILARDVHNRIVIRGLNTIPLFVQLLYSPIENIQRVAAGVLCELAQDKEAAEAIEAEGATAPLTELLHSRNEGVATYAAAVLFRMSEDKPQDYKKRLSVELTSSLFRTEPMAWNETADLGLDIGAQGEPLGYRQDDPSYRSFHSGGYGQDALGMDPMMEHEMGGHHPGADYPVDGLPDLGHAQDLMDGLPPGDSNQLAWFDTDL

Results are given in words; binding and its absence hold for the method and conditions named. In cells and extracts the contact can be indirect. A result given as binding can be weak or reduced; the word gives no strength.

Turning to “Myc-tagged Axin (from UniProt O15169 1-862)”, the binding entry is on record as “binds weakly”.
In the case of “N-terminal HA-tagged wild-type β-catenin (from UniProt P35222 1-781)” it was “no binding”.

Values taken from doi:10.1101/2022.12.23.521717.
